Drawing on PMC10366548, this text covers binding for 2 substances.

Amino acid sequences for entries named in this document (tags omitted).
UniProt Q91738: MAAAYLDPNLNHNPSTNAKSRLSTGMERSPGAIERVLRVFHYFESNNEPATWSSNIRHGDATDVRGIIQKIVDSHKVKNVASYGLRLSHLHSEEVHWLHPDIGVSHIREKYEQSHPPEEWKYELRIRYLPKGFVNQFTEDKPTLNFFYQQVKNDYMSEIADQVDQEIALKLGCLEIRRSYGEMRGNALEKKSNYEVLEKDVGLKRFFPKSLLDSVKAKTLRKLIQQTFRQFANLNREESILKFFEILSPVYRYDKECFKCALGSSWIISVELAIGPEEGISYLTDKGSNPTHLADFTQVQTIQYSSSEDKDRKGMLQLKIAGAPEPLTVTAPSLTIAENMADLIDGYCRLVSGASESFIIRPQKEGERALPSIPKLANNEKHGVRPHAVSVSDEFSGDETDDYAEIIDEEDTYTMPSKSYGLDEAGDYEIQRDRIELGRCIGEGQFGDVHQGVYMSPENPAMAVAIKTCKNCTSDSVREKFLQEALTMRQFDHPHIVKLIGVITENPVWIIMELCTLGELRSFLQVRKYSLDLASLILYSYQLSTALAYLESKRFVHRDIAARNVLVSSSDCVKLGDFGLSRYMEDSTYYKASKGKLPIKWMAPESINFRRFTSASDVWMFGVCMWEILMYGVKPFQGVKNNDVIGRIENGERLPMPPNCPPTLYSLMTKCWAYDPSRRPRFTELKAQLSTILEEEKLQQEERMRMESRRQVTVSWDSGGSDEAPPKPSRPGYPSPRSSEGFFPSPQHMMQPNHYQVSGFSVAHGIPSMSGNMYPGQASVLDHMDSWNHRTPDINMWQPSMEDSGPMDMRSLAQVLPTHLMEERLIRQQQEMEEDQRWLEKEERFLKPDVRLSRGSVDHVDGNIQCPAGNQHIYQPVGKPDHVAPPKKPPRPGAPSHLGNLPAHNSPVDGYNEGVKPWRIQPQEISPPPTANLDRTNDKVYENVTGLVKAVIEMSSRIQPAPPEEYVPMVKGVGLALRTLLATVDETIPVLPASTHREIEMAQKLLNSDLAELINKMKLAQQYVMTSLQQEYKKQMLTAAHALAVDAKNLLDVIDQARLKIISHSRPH

Results are given in words; binding and its absence hold for the method and conditions named. In cells and extracts the contact can be indirect. Some results given as binding are weak or reduced against the parent protein; the word gives no strength.

Experiment [1] concerns the target human epidermal growth factor (EGF) receptor (EGFR) (human) (UniProt P00533). Description: co-IP; anti-EGFR immunoprecipitation from DE oocytes expressing EGFR, injected with GST-Grb7 (20 ng) with or without 60 ng SH2 domain of Grb7 as competitor, 5 nM EGF.
Experiment [2] shares this target. The experiment is described as follows: condition: only in oocytes with their follicular cells (FC); co-IP; anti-EGFR immunoprecipitation (Protein A Sepharose, 4 °C, PYT buffer) from oocytes with their follicular cells (FC) expressing EGFR, injected with GST-Grb7, stimulated with 5 nM EGF; Grb7 is O-GlcNAcylated here; also with 100 μM Thiamet G.
Experiment [3] has the same target. The experiment is described as follows: co-IP; anti-EGFR immunoprecipitation (Protein A Sepharose, 4 °C, PYT buffer with 500 mM NaCl, 0.05% SDS, 0.5% Triton X-100) from defolliculated (DE) oocytes expressing EGFR, injected with GST-Grb7, stimulated with 5 nM EGF; Grb7 is tyrosine-phosphorylated here; also with 100 μM Thiamet G or 15 μM OSMI-4.

With “SH2 domain of Grb7, GST fusion (from UniProt Q14451 431-527) (domain or fragment)”, the binding entry in experiment [1] is given as “binds”.

Take “focal adhesion kinase (FAK) (from UniProt Q91738 1-1068) (enzyme)”: the figures for the binding entry in experiment [2] and in experiment [3] were “no binding” and “binds”, respectively.
